Measured values from US20080287430A1, “Furan Compounds Useful As Ep1 Receptor Antagonists” (priority 2005, published 2008).
Where a name gives a salt, the structure may show the parent alone. Some entries share one result that the patent states for a list of compounds.

Biological target: T1, human EP3 receptor (Homo sapiens, UniProt P43115)
T1 construct: expressed in transfected cells; host or cells: CHO-K1
T1 sequence (P43115 1-390): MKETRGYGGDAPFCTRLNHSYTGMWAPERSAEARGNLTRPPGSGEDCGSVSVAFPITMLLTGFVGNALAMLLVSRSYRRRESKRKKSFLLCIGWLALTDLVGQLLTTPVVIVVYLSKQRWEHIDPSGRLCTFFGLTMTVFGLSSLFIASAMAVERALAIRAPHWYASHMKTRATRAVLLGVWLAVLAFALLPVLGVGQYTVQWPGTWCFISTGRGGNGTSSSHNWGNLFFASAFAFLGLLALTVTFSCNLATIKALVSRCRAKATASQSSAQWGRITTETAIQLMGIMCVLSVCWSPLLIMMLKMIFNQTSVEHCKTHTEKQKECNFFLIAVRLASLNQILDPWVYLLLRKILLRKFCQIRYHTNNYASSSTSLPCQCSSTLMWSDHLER
Assay: human EP3 calcium mobilisation assay
Type: cell-based
Details: free bases or sodium salts; for functional pKi value: human EP3, PGE2-induced calcium mobilisation in CHO-K1 cells, averages of a number of experiments; for activity in a functional assay: human EP3 calcium mobilisation assay

| SMILES | functional pKi value | activity in a functional assay |
| --- | --- | --- |
| CC(C)COc1ccc(Cl)cc1Cc1ccc(-c2nc3ccc(CN4CCOCC4)cc3[nH]2)o1 [Example 144, 2-[5-({5-Chloro-2-[(2-methylpropyl)oxy]-phenyl}methyl)-2-furanyl]-5-(4-morpholinylmethyl)-1H-benzimidazoledihydrochloride] | ≤ 6.5 |  |
| CC(C)COc1ccc(Cl)cc1Cc1ccc(-c2nc3ccc(CN4CCN(C)CC4)cc3[nH]2)o1 [Example 145, 2-[5-({5-Chloro-2-[(2-methylpropyl)oxy]-phenyl}methyl)-2-furanyl]-5-[(4-methyl-1-piperazinyl)methyl]-1H-benzimidazoletrihydrochloride] | ≤ 6.5 | no activity |
| CCN1CCN(Cc2ccc3nc(-c4ccc(Cc5cc(Cl)ccc5OCC(C)C)o4)[nH]c3c2)CC1 [Example 146, 2-[5-({5-Chloro-2-[(2-methylpropyl)oxy]-phenyl}methyl)-2-furanyl]-5-[(4-ethyl-1-piperazinyl)methyl]-1H-benzimidazoletrihydrochloride] | ≤ 6.5 | no activity |
| CC(C)COc1ccc(Cl)cc1Cc1ccc(-c2nc3ccc(CN4CCCCC4)cc3[nH]2)o1 [Example 147, 2-[5-({5-Chloro-2-[(2-methylpropyl)oxy]-phenyl}methyl)-2-furanyl]-5-(1-piperidinylmethyl)-1H-benzimidazoledihydrochloride] | ≤ 6.5 | no activity |
| COCCN(C)Cc1ccc2nc(-c3ccc(Cc4cc(Cl)ccc4OCC(C)C)o3)[nH]c2c1 [Example 148, N-({2-[5-({5-Chloro-2-[(2-methylpropyl)oxy]-phenyl}methyl)-2-furanyl]-1H-benzimidazol-5-yl}methyl)-N-methyl-2-(methyloxy)ethanaminedihydrochloride] | ≤ 6.5 |  |
| CC(C)COc1ccc(Cl)cc1Cc1ccc(-c2nc3ccc(CN(C)CCC#N)cc3[nH]2)o1 [Example 149, 3-[({2-[5-({5-Chloro-2-[(2-methylpropyl)oxy]-phenyl}methyl)-2-furanyl]-1H-benzimidazol-5-yl}methyl)(methyl)-amino]propanenitriledihydrochloride] | ≤ 6.5 |  |
| CCN(CC)Cc1ccc2nc(-c3ccc(Cc4cc(Cl)ccc4OCC(C)C)o3)[nH]c2c1 [Example 150, N-({2-[5-({5-Chloro-2-[(2-methylpropyl)oxy]-phenyl}methyl)-2-furanyl]-1H-benzimidazol-5-yl}methyl)-N-ethylethanaminedihydrochloride] | ≤ 6.5 | no activity |
| CC(C)COc1ccc(Cl)cc1Cc1ccc(-c2nc3ccc(CN(C)C(C)C)cc3[nH]2)o1 [Example 151, N-({2-[5-({5-Chloro-2-[(2-methylpropyl)oxy]-phenyl}methyl)-2-furanyl]-1H-benzimidazol-5-yl}methyl)-N-methyl-2-propanaminedihydrochloride] | ≤ 6.5 | no activity |
| CC(C)COc1ccc(Cl)cc1Cc1ccc(-c2nc3ccc(CN(C)CC4CCOCC4)cc3[nH]2)o1 [Example 152, ({2-[5-({5-Chloro-2-[(2-methylpropyl)oxy]-phenyl}methyl)-2-furanyl]-1H-benzimidazol-5-yl}methyl)methyl(tetrahydro-2H-pyran-4-ylmethyl)aminedihydrochloride] | ≤ 6.5 | no activity |
| CC(C)COc1ccc(Cl)cc1Cc1ccc(-c2nc3ccc(CN(C)CC(C)(C)C)cc3[nH]2)o1 [Example 153, N-({2-[5-({5-Chloro-2-[(2-methylpropyl)oxy]-phenyl}methyl)-2-furanyl]-1H-benzimidazol-5-yl}methyl)-N,2,2-trimethyl-1-propanaminedihydrochloride] | ≤ 6.5 | no activity |
| CCNCc1ccc2nc(-c3ccc(Cc4cc(Cl)ccc4OCC(C)C)o3)[nH]c2c1 [Example 154, N-({2-[5-({5-Chloro-2-[(2-methylpropyl)oxy]-phenyl}methyl)-2-furanyl]-1H-benzimidazol-5-yl}methyl)ethanaminedihydrochloride] | ≤ 6.5 | no activity |
| CC(C)COc1ccc(Cl)cc1Cc1ccc(-c2nc3ccc(CNC(C)C)cc3[nH]2)o1 [Example 155, N-({2-[5-({5-Chloro-2-[(2-methylpropyl)oxy]-phenyl}methyl)-2-furanyl]-1H-benzimidazol-5-yl}methyl)-2-propanaminedihydrochloride] | ≤ 6.5 |  |
| CC(C)COc1ccc(Cl)cc1Cc1ccc(-c2nc3ccc(CNCCO)cc3[nH]2)o1 [Example 156, 2-[({2-[5-({5-Chloro-2-[(2-methylpropyl)oxy]-phenyl}methyl)-2-furanyl]-1H-benzimidazol-5-yl}methyl)amino]-ethanol] | ≤ 6.5 | no activity |
| CN1CCN(Cc2cccc3nc(-c4ccc(Cc5cc(Cl)ccc5OCc5ccccc5)o4)[nH]c23)CC1.Cl [Example 160, 2-[5-({5-Chloro-2-[(phenylmethyl)oxy]-phenyl}methyl)-2-furanyl]-4-[(4-methyl-1-piperazinyl)methyl]-1H-benzimidazolehydrochloride] | ≤ 6.5 | no activity |
| CC(C)COc1ccc(Cl)cc1Cc1ccc(-c2nc3ccc(CCN4CCCC4)cc3[nH]2)o1 [Example 161, 2-[5-({5-Chloro-2-[(2-methylpropyl)oxy]-phenyl}methyl)-2-furanyl]-5-[2-(1-pyrrolidinyl)ethyl]-1H-benzimidazoledihydrochloride] | ≤ 6.5 | no activity |
| CC(C)COc1ccc(Cl)cc1Cc1ccc(-c2nc3ccc(CCN4CCN(C)CC4)cc3[nH]2)o1 [Example 162, 2-[5-({5-Chloro-2-[(2-methylpropyl)oxy]-phenyl}methyl)-2-furanyl]-5-[2-(4-methyl-1-piperazinyl)ethyl]-1H-benzimidazoletrihydrochloride] | ≤ 6.5 | no activity |
| CC(C)COc1ccc(Cl)cc1Cc1ccc(-c2nc3ccc(CCN(C)C)cc3[nH]2)o1 [Example 163, (2-{2-[5-({5-Chloro-2-[(2-methylpropyl)oxy]-phenyl}methyl)-2-furanyl]-1H-benzimidazol-5-yl}ethyl)dimethylaminedihydrochloride] | ≤ 6.5 | no activity |
| CC(C)COc1ccc(Cl)cc1Cc1ccc(-c2nc3cc(CN(C)C)cnc3[nH]2)o1 [Example 164, ({2-[5-({5-Chloro-2-[(2-methylpropyl)oxy]-phenyl}methyl)-2-furanyl]-1H-imidazo[4,5-b]pyridin-6-yl}methyl)dimethyl-amine dihydrochloride] | ≤ 6.5 | no activity |
| CC(C)COc1ccc(Cl)cc1Cc1ccc(-c2nc3cc(CN4CCCC4)cnc3[nH]2)o1 [Example 165, 2-[5-({5-Chloro-2-[(2-methylpropyl)oxy]-phenyl}methyl)-2-furanyl]-6-(1-pyrrolidinylmethyl)-1H-imidazo[4,5-b]pyridinedihydrochloride] | ≤ 6.5 | no activity |
| CNCc1ccc2[nH]c(-c3ccc(Cc4cc(Cl)ccc4OCC(C)C)o3)nc2c1 [Example 166, ({2-[5-({5-Chloro-2-[(2-methylpropyl)oxy]phenyl}methyl)-2-furanyl]-1H-benzimidazol-5-yl}methyl)methylamine dihydrochloride] | ≤ 6.5 | no activity |
| CC(C)COc1ccc(Cl)cc1Cc1ccc(-c2ncc[nH]2)o1 [Example 167, 2-[5-({5-Chloro-2-[(2-methylpropyl)oxy]phenyl}methyl)-2-furanyl]-1H-imidazole] | ≤ 6.5 |  |
| CC(C)COc1ccc(Cl)cc1Cc1ccc(-c2cc[nH]n2)o1 [Example 168] | ≤ 6.5 |  |
| Clc1ccc(OCc2ccccc2)c(Cc2ccc(-c3nnc[nH]3)o2)c1 [Example 169, 3-[5-({5-Chloro-2-[(phenylmethyl)oxy]phenyl}methyl)-2-furanyl]-1H-1,2,4-triazole] | ≤ 6.5 |  |
